The list shows a part of the results.

Amino acid sequences for entries named in this document (tags omitted). A change or cut given only in a name is not applied to a line headed by its entry.
UniProt Q8IWD4: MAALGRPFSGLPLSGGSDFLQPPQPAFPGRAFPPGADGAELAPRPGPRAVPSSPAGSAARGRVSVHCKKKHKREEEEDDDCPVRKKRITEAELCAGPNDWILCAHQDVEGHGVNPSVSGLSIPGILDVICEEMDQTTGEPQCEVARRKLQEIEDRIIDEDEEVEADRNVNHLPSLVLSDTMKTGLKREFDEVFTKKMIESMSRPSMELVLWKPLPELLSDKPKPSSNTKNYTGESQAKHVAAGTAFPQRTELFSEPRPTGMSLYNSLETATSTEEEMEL
UniProt P78371: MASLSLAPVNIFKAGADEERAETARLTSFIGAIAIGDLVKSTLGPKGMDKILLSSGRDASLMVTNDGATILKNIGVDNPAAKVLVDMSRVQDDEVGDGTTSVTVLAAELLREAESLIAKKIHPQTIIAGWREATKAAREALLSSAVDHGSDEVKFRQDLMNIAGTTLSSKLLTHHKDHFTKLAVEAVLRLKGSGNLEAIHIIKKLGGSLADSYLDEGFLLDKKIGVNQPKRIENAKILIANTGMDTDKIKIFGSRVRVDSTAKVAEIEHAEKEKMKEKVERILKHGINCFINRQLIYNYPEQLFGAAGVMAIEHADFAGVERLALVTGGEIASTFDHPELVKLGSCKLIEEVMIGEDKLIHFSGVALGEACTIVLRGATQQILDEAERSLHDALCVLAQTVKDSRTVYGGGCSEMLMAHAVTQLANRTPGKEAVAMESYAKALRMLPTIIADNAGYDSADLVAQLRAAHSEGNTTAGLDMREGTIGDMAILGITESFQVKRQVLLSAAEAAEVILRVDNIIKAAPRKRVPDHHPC
UniProt P40227, whole entry, looked up: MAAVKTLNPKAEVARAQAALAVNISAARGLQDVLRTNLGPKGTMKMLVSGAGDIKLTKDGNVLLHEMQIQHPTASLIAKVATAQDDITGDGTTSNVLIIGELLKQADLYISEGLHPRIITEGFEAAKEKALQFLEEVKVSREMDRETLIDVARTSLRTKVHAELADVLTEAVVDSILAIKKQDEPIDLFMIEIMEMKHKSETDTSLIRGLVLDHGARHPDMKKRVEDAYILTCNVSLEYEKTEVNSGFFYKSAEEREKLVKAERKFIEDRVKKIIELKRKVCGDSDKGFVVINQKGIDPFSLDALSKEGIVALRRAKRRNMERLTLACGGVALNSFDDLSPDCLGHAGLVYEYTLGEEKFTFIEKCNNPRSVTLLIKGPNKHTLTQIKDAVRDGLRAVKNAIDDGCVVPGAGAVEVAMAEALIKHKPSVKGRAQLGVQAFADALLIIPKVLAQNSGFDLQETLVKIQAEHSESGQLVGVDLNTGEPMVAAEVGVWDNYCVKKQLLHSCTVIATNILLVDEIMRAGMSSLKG
UniProt P19256, whole entry, looked up: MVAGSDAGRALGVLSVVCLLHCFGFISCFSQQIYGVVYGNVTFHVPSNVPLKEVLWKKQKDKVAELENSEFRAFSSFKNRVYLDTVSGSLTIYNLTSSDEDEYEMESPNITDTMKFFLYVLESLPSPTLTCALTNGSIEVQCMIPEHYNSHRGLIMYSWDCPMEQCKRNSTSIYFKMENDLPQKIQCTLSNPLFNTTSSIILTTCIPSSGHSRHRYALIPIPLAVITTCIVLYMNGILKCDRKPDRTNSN
UniProt P50991: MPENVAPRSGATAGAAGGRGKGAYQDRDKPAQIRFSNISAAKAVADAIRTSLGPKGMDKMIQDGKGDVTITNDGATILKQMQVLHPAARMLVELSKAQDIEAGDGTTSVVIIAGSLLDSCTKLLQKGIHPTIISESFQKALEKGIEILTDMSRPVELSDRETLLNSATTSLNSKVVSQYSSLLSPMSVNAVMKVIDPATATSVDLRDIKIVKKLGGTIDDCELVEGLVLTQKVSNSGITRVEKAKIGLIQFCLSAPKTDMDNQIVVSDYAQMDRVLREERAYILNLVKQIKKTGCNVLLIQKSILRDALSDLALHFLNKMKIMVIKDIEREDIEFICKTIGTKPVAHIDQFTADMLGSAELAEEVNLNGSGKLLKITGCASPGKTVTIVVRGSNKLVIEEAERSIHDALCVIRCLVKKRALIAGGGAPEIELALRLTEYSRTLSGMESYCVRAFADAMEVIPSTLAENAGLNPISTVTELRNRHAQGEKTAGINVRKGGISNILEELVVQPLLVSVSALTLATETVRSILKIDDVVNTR
UniProt Q15834: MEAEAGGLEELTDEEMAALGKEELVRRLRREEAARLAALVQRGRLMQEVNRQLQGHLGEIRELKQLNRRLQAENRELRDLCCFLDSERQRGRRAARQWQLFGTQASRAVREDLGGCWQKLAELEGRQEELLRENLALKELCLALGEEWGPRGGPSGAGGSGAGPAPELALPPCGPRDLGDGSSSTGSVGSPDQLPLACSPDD
UniProt O15446, whole entry, looked up: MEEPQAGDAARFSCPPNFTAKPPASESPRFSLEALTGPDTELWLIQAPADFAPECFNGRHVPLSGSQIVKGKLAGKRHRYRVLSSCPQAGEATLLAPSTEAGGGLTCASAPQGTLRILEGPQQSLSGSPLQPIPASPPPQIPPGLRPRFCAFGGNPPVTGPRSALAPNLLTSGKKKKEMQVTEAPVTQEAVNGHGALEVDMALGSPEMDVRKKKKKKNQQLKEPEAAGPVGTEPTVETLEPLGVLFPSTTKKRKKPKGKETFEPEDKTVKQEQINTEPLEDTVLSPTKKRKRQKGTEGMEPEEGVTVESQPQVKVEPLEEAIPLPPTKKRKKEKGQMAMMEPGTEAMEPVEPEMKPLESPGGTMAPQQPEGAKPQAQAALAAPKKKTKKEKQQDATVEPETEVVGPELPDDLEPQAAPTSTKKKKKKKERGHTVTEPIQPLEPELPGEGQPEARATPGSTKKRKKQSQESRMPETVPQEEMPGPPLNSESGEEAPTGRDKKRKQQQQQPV

Compound in this assay: c1cn2cc(-c3ccc4cn[nH]c4c3)nc(Nc3ccc(N4CCOCC4)cc3)c2n1 [entospletinib]
Briefly: log2 fold change, soluble protein after heating vs DMSO (PISA); higher = thermal stabilisation; K562 cells, 10 uM, 30 min; active = over 0.2 and 3.5 SD of the protein, either way, in both replicates (recomputed). The method in brief: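 Thermal stability values are relative to control samples and come from duplicates. They are expressed as log2 fold changes. For measurement, K562 cells (2×10^6 cells/mL) received 10 μM compound for 30 min, and aliquots were heated for 3 min over 48°C-58°C, pooled, and extracted at 4°C in PBS with 0.5% NP-40. Soluble protein, the supernatant after 21,000xg for 90 min, was quantified by TMTpro 16plex LC-MS/MS with equalised channel sums.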
In the case of CCDC117 (UniProt Q8IWD4), the log2 fold change was inactive: 0.055.

As to CCT2 (UniProt P78371), the log2 fold change is inactive: -0.063.

As for CCT6A (UniProt P40227), the log2 fold change is inactive: -0.047.

In the case of CD58 (UniProt P19256), the log2 fold change was inactive: 0.01.

In the case of CCT4 (UniProt P50991), the log2 fold change was inactive: -0.062.

Regarding CCDC85B (UniProt Q15834), the log2 fold change was inactive: 0.038.

As for CD3EAP isoform 2 (UniProt O15446), the log2 fold change was inactive: 0.036.

The record behind these values is the supplement of paper PMC10849652.
